Taken from: PubChem BioAssay AID1259254 (NCATS, 2017)
The deposit covers about 59,000 reagents; shown is a random part of them. About 1,550 of all reagents (2.6%) were called active. 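G2 share is only a proxy for re-replication; each gene was hit by three separate siRNAs, and active genes were retested.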 Unmarked entries are inactive. The numbers tell different reagents against one gene apart. Further read-outs or replicates are left out here. Not given: the amount of reagent.

Purpose: 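Genome-wide screen for genes that prevent DNA re-replication in cancer cells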 (primary screen)
System: human HCT116 colorectal cancer cells
Reagents: single siRNA against human genes
Time to read-out: 3 days
Measurement: 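Imaged Hoechst DNA stain sorts each cell into a cycle phase by DNA amount; per plate, G2 fraction set to 0% for non-targeting and 100% for GMNN siRNA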
Reading the numbers: G2 robust z-score: higher = more G2 cells, more excess DNA replication
Hit rule: 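An siRNA counts as active if its G2 robust z-score lies at least 5 MADs above the screen median; here such calls match roughly 38% of GMNN control or more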

GCSHP9 #1
- G2 robust z-score: -0.393

GCSHP9 #2
- G2 robust z-score: 0.129

GCSHP9 #3
- G2 robust z-score: -0.706

ACOT7 #1
- G2 robust z-score: 0.522

ACOT7 #2
- G2 robust z-score: 1.46

ACOT7 #3
- G2 robust z-score: 0.686

OSBP2 #1
- G2 robust z-score: 0.333

OSBP2 #2
- G2 robust z-score: 8.87 (active)

OSBP2 #3
- G2 robust z-score: 0.291

ZBTB22 #1
- G2 robust z-score: -0.346

ZBTB22 #2
- G2 robust z-score: 3.25

ZBTB22 #3
- G2 robust z-score: 1.66

GZMB #1
- G2 robust z-score: -0.0974

GZMB #2
- G2 robust z-score: -1.6

GZMB #3
- G2 robust z-score: -0.225

2 successive records from above, quoted:
ZBTB22 #2
- G2 robust z-score: 3.25

ZBTB22 #3
- G2 robust z-score: 1.66

Next records follow:
PIK3R5 #1
- G2 robust z-score: -0.403

PIK3R5 #2
- G2 robust z-score: 0.202

PIK3R5 #3
- G2 robust z-score: 0.729

CUZD1 #1
- G2 robust z-score: 1.73

CUZD1 #2
- G2 robust z-score: 1.01

CUZD1 #3
- G2 robust z-score: 0.201

LOC730909 (retired record) #1
- G2 robust z-score: -0.209

LOC730909 (retired record) #2
- G2 robust z-score: 1.65

LOC730909 (retired record) #3
- G2 robust z-score: 2.39
